Reference: paper PMC5302965
These are yes or no findings as the source states them, for the method shown. In cells and extracts the contact can be indirect. Some binding calls cover weakened binding; strength is not graded here.

The chains behind the UniProt entries cited, without tags or fusion partners. Where a name states a change or a piece, a line headed by the entry shows the natural chain unless it says otherwise.
UniProt P60953: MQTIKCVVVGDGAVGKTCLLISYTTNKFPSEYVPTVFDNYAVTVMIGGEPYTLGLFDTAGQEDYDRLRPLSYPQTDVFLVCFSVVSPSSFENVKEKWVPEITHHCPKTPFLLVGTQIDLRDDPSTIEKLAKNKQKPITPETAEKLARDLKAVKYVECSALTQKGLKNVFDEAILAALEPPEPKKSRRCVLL
UniProt P46940: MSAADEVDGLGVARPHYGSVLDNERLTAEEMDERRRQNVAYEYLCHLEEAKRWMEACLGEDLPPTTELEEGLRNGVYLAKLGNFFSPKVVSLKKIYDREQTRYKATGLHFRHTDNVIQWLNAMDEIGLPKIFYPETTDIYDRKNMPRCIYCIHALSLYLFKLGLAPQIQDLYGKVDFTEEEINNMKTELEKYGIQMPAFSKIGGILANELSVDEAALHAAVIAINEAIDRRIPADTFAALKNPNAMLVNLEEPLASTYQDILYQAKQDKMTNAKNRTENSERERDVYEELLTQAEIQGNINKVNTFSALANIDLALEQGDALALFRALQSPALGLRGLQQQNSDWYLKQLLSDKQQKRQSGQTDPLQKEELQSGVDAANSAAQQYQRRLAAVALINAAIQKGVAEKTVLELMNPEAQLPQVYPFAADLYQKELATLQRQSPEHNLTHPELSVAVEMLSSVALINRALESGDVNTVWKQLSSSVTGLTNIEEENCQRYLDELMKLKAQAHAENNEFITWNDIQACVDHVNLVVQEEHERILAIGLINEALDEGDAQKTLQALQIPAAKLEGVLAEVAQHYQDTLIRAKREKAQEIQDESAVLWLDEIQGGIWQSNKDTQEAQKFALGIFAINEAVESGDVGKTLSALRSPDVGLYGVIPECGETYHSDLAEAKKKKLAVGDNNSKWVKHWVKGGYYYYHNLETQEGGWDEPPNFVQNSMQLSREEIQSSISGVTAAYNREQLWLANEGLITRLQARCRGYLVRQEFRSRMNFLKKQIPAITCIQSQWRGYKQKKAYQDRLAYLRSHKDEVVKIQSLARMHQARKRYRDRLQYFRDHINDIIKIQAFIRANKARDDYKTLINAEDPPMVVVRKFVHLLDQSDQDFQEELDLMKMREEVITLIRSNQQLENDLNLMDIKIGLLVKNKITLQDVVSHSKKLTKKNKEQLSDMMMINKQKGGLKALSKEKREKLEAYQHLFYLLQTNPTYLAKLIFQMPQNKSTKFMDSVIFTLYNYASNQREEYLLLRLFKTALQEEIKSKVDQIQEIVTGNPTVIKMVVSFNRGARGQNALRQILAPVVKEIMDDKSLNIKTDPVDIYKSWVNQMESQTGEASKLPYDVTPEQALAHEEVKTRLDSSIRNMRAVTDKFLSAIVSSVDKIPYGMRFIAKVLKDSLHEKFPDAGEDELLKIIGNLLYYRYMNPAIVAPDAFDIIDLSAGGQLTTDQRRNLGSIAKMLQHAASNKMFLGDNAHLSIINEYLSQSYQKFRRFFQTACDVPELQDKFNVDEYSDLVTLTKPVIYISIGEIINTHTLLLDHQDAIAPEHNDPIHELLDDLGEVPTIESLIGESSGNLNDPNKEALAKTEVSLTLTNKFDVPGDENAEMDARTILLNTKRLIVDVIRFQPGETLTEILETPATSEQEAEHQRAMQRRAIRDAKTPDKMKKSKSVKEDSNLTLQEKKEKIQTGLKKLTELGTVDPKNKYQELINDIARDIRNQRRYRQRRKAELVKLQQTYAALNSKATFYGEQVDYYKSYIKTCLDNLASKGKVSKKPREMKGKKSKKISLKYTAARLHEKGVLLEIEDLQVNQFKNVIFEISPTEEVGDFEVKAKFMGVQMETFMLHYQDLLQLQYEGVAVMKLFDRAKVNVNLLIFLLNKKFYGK

Key:
[1] = target: FLAG-tagged constitutively active Cdc42 (Cdc42G12V) (UniProt P60953); test: co-IP; FLAG-Cdc42 expressing U87MG cells lysed in immunoprecipitation buffer (150mM NaCl, 50mM HEPES, 10% glycerol, 1% Triton X-100, 2mM EDTA); anti-FLAG conjugated magnetic beads, 4°C over night; washed with ice-cold PBS; immunoblotting
[2] = target: FLAG-tagged dominant negative Cdc42 (Cdc42T17N) (UniProt P60953); test: as above

IQ-domain GTPase-activating protein 1 (IQGAP1) (from UniProt P46940 1-1657)
binding [1]: binds | binding [2]: no binding
